The supplement of paper PMC10849652
Some of the results follow.

Sequences of proteins named here, by UniProt entry; tags and fusion partners are left off. A change or cut given only in a name is not applied to a line headed by its entry.
UniProt Q6ZNB6: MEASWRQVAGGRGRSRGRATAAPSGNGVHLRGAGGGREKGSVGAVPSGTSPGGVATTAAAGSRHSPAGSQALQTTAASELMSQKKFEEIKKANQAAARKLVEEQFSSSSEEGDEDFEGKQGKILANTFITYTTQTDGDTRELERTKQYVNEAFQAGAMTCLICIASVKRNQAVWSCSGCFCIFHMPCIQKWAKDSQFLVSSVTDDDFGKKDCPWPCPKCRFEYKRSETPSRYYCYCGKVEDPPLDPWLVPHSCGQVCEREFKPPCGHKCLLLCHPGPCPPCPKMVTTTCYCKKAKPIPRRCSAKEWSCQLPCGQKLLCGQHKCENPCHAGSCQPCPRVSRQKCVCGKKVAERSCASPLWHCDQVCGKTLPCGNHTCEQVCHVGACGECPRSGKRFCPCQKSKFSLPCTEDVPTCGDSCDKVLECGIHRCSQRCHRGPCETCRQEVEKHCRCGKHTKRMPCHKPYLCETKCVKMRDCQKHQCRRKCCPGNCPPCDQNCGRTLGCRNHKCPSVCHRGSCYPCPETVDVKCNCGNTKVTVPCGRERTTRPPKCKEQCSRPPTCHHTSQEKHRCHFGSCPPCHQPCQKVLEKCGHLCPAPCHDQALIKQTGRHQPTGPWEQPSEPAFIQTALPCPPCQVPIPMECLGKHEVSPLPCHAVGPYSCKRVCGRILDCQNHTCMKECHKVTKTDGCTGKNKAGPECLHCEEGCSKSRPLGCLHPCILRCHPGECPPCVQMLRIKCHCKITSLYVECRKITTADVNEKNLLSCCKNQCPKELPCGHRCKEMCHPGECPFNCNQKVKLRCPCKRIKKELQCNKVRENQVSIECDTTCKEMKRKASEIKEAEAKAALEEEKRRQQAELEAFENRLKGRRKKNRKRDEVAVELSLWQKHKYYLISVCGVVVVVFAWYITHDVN
UniProt P22392, whole entry, looked up: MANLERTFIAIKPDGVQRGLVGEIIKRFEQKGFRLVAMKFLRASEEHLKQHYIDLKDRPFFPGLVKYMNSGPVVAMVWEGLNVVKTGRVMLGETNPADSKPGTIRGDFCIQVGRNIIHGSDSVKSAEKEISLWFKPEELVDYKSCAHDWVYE
UniProt Q15233: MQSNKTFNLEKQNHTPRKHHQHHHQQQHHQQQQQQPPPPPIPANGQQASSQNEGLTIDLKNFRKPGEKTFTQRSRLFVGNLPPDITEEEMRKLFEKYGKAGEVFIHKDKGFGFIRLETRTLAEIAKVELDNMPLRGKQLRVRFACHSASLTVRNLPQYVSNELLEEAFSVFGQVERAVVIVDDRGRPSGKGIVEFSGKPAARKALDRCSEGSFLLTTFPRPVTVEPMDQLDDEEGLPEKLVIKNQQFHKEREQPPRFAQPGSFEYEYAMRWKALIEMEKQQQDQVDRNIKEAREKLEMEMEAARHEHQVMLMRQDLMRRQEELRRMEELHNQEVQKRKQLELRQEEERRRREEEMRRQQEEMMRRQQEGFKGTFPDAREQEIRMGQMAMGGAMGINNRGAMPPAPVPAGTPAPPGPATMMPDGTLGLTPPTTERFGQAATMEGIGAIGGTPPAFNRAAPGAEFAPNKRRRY
UniProt Q9Y221: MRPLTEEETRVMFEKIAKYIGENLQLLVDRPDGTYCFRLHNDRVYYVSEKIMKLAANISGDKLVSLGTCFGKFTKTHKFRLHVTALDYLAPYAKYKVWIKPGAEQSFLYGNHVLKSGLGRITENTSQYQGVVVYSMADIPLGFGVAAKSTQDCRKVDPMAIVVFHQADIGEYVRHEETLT
UniProt P23511, whole entry, looked up: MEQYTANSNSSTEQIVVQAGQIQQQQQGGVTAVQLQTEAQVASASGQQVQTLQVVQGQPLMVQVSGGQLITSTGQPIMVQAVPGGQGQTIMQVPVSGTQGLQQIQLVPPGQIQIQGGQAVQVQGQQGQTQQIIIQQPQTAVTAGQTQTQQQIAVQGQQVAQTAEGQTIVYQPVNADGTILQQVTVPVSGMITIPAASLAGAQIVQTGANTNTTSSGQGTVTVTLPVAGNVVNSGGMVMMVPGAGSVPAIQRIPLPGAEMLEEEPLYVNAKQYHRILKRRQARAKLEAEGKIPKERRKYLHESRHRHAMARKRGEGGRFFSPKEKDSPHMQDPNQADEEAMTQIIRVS
UniProt Q9Y639: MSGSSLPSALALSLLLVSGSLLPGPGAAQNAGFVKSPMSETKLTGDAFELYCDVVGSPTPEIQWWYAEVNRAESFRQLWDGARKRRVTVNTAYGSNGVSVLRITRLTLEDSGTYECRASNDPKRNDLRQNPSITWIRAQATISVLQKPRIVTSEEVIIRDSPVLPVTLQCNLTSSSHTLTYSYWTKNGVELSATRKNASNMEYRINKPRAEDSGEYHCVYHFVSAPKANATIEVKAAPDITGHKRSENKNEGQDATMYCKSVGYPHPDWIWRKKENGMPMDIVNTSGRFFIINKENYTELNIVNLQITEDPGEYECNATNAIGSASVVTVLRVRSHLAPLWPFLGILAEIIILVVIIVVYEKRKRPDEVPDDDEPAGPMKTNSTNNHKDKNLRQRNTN
UniProt Q9NX02: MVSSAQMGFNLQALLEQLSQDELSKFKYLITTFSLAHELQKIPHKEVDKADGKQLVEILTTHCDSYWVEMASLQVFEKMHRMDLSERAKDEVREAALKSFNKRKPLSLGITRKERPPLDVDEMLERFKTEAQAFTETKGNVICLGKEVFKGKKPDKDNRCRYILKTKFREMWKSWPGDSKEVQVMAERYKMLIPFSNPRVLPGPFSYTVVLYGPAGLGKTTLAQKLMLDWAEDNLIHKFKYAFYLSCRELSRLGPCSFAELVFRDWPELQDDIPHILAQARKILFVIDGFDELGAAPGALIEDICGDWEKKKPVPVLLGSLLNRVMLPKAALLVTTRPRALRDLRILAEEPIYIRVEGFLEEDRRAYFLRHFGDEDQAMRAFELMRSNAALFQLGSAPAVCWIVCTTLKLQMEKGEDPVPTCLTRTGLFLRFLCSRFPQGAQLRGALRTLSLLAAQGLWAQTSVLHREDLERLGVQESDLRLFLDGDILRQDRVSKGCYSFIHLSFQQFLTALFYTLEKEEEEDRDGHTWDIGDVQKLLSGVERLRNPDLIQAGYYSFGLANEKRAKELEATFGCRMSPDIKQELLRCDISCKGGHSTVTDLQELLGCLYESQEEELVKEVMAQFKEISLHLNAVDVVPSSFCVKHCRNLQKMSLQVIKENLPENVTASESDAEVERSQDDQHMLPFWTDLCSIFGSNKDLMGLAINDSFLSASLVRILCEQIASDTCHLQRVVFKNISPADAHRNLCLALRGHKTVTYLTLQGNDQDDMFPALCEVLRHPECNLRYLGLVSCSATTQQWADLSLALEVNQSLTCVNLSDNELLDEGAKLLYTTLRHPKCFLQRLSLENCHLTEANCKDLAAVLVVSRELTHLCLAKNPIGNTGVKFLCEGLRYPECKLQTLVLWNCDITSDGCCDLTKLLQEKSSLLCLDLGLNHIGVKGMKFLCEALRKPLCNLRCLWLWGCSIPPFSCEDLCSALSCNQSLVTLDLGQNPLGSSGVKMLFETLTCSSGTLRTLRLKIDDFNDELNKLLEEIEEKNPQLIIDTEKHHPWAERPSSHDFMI
UniProt Q13232: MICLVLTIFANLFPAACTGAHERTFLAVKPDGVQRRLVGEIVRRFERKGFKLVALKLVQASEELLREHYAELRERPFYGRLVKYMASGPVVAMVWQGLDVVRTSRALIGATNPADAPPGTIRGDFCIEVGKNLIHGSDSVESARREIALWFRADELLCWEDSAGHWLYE
UniProt Q5JS37: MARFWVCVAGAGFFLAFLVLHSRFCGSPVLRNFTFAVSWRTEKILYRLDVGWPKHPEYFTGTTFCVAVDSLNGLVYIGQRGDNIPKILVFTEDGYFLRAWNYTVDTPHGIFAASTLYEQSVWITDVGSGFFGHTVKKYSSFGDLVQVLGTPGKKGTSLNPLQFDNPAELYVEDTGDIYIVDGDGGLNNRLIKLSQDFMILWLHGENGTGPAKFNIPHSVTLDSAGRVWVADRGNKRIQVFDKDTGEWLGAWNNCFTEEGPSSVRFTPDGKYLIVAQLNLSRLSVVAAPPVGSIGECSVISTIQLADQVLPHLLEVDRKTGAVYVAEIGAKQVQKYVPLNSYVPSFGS
UniProt Q9NVX2: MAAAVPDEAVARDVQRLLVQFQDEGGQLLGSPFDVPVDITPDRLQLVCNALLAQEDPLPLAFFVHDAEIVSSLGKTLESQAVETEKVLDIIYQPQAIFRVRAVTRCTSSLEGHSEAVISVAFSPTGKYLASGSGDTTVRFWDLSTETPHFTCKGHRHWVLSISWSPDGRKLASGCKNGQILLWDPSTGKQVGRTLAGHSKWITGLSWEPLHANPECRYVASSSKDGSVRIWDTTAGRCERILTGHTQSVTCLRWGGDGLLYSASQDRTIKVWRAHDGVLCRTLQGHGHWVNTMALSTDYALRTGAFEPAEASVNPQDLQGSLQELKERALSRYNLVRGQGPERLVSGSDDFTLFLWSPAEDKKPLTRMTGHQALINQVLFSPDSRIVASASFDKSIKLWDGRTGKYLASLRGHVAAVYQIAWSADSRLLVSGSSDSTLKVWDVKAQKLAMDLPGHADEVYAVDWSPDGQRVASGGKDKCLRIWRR
UniProt Q15155: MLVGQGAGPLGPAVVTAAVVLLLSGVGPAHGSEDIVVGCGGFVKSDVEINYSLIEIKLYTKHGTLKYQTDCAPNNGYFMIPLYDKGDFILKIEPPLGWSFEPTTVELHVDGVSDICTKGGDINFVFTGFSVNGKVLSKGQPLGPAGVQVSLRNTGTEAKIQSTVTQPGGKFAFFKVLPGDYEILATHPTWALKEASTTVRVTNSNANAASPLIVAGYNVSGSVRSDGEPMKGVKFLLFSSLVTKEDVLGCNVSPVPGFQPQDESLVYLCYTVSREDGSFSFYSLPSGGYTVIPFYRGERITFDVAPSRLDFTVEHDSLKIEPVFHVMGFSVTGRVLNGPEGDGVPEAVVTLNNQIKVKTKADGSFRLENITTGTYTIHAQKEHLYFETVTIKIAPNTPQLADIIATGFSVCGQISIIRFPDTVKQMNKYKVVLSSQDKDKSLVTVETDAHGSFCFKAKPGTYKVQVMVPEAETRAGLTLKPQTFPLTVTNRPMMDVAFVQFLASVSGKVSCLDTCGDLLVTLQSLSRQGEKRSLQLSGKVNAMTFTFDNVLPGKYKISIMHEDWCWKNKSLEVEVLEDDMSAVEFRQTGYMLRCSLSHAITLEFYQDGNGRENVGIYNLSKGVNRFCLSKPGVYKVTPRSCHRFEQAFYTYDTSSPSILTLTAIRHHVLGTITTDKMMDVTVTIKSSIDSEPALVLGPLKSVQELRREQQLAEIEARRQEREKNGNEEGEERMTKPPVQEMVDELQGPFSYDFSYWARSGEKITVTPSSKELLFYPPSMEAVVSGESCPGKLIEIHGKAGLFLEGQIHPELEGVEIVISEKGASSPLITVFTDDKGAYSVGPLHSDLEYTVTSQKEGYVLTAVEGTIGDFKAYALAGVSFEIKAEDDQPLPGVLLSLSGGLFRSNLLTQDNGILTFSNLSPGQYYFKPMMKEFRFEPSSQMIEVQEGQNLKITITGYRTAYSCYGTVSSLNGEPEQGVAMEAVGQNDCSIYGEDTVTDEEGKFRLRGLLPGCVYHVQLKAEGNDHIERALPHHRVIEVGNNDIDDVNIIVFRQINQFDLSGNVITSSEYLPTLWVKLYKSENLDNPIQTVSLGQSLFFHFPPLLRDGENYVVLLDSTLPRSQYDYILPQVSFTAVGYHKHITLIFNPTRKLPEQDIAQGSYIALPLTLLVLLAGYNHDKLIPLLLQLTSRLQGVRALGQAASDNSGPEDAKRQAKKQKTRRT
UniProt Q12857, whole entry, looked up: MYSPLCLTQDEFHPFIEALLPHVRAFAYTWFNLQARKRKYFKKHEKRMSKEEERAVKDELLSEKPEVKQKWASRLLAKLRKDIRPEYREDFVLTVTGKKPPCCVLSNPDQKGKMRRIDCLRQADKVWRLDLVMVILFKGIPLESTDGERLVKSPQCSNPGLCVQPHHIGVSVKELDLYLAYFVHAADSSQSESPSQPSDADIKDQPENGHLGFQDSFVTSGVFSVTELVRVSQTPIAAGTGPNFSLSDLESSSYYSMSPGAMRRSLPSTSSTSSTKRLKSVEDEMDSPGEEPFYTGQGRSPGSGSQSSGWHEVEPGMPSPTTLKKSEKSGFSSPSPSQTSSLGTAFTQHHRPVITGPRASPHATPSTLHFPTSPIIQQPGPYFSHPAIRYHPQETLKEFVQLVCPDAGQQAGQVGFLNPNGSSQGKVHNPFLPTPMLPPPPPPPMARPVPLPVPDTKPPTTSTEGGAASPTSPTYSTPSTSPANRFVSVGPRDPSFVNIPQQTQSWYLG
UniProt P16083: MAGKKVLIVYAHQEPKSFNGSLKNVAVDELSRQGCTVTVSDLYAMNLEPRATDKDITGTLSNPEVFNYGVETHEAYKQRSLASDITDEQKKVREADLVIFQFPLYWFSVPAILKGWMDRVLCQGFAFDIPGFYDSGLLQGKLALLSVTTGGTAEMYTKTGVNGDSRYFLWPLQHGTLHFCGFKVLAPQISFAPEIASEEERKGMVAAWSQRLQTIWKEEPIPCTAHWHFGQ

Assays:
Test in all cases: log2 fold change, soluble protein after heating vs DMSO (PISA); higher = thermal stabilisation; K562 cells, 10 uM, 30 min; active = over 0.2 and 3.5 SD of the protein, either way, in both replicates (recomputed)
[1] = compound: CS(=O)(=O)c1ccc(-c2cnc(N)c(C(=O)Nc3ccccc3)n2)cc1
How it was run: (§1)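 Aliquots of K562 cells (2×10^6 cells/mL) treated with 10 μM compound for 30 min were heated for 3 min over 48°C-58°C. After pooling and extraction in PBS with 0.5% NP-40 at 4°C, soluble protein from a 21,000xg, 90 min spin was quantified by TMTpro 16plex LC-MS/MS with channel sums equalised. Thermal stability is expressed against control samples, from duplicates, as a log2 fold change.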

crizotinib = compound: C[C@@H](Oc1cc(-c2cnn(C3CCNCC3)c2)cnc1N)c1c(Cl)ccc(F)c1Cl [crizotinib]
How it was run: as §1

[2] = compound: C[C@@H]1COCCN1C2=NC(=NC(=C2)C3(CC3)S(=O)(=O)C)C4=C5C=CNC5=CC=C4
How it was run: as §1

[3] = compound: C[C@H](C1=CC=C(C=C1)C(=O)NC2=C3C=CNC3=NC=C2)N
How it was run: as §1

duvelisib = compound: C[C@H](Nc1ncnc2nc[nH]c12)c1cc2cccc(Cl)c2c(=O)n1-c1ccccc1 [duvelisib]
How it was run: as §1

gandotinib = compound: Cc1cc(Nc2cc(CN3CCOCC3)c3nc(C)c(Cc4ccc(Cl)cc4F)n3n2)n[nH]1 [gandotinib]
How it was run: as §1

tozasertib = compound: Cc1cc(Nc2cc(N3CCN(C)CC3)nc(Sc3ccc(NC(=O)C4CC4)cc3)n2)n[nH]1 [tozasertib]
How it was run: as §1

[4] = compound: Cc1cc(SCc2sc(-c3ccc(C(F)(F)F)cc3)nc2C)ccc1OCC(=O)O
How it was run: as §1

doramapimod = compound: Cc1ccc(-n2nc(C(C)(C)C)cc2NC(=O)Nc2ccc(OCCN3CCOCC3)c3ccccc23)cc1 [doramapimod]
How it was run: as §1

ispinesib = compound: Cc1ccc(C(=O)N(CCCN)[C@@H](c2nc3cc(Cl)ccc3c(=O)n2Cc2ccccc2)C(C)C)cc1 [ispinesib]
How it was run: as §1

bafetinib = compound: Cc1ccc(NC(=O)c2ccc(CN3CC[C@H](N(C)C)C3)c(C(F)(F)F)c2)cc1Nc1nccc(-c2cncnc2)n1 [bafetinib]
How it was run: as §1

[5] = compound: Cc1cccc(CC(=O)N2CCc3c2ccc(-c2cn(C)c4ncnc(N)c24)c3F)n1
How it was run: as §1

nilotinib = compound: Cc1cn(-c2cc(NC(=O)c3ccc(C)c(Nc4nccc(-c5cccnc5)n4)c3)cc(C(F)(F)F)c2)cn1 [nilotinib]
How it was run: as §1

[6] = compound: Cc1nc(Nc2n[nH]c3c2CN(C(=O)N[C@H](CN(C)C)c2ccccc2)C3(C)C)c2sccc2n1
How it was run: as §1

dasatinib = compound: Cc1nc(Nc2ncc(C(=O)Nc3c(C)cccc3Cl)s2)cc(N2CCN(CCO)CC2)n1 [dasatinib]
How it was run: as §1

[7] = compound: Cc1ncc(-c2ccnc(Nc3ccc(S(C)(=O)=O)cc3)n2)n1C(C)C
How it was run: as §1

[8] = compound: Cn1cc(-c2ccc3c(c2)CCN3C(=O)Cc2cccc(C(F)(F)F)c2)c2c(N)ncnc21
How it was run: as §1

[9] = compound: Cn1cc(-c2ccc3nnc(C(F)(F)c4ccc5ncccc5c4)n3n2)cn1
How it was run: as §1

tipifarnib = compound: Cn1cncc1[C@@](N)(c1ccc(Cl)cc1)c1ccc2c(c1)c(-c1cccc(Cl)c1)cc(=O)n2C [tipifarnib]
How it was run: as §1

mubritinib = compound: FC(F)(F)c1ccc(/C=C/c2nc(COc3ccc(CCCCn4ccnn4)cc3)co2)cc1 [mubritinib]
How it was run: as §1

Measured: log2 fold change

NRBF2 (UniProt Q96F24)
inactive: [1] 0.009 | crizotinib 0.034 | [2] 0.098 | [3] -0.021 | duvelisib 0.119 | gandotinib 0.062 | tozasertib -0.079 | [4] -0.008 | doramapimod 0.022 | ispinesib 0.034 | bafetinib -0.05 | [5] -0.152 | nilotinib 0.016 | [6] -0.041 | dasatinib 0 | [7] 0.052 | [8] 0 | [9] 0.025 | tipifarnib -0.078 | mubritinib 0.04

NFXL1 (UniProt Q6ZNB6)
inactive: [1] -0.018 | crizotinib 0.082 | [2] -0.003 | [3] -0.057 | duvelisib 0.061 | gandotinib 0.074 | tozasertib 0.064 | [4] 0.019 | doramapimod -0.018 | ispinesib 0.032 | bafetinib -0.012 | [5] -0.006 | nilotinib -0.061 | [6] -0.007 | dasatinib 0.002 | [7] 0.043 | [8] 0 | [9] -0.017 | tipifarnib -0.004 | mubritinib -0.002

NME2 isoform 2 (UniProt P22392)
inactive: [1] 0.001 | crizotinib 0.035 | [2] 0.049 | [3] 0.002 | duvelisib 0.045 | gandotinib 0.011 | tozasertib -0.03 | [4] -0.042 | doramapimod -0.004 | ispinesib 0.017 | bafetinib -0.041 | [5] -0.046 | nilotinib 0.004 | [6] 0.02 | dasatinib 0.04 | [7] -0.011 | [8] 0.031 | [9] 0.012 | tipifarnib 0.009 | mubritinib 0.037

NONO (UniProt Q15233)
inactive: [1] -0.04 | crizotinib 0.007 | [2] -0.094 | [3] 0.28 | duvelisib -0.033 | gandotinib -0.038 | tozasertib 0.153 | [4] 0.055 | doramapimod 0.05 | ispinesib -0.18 | bafetinib 0.134 | [5] -0.106 | nilotinib -0.056 | [6] -0.283 | dasatinib 0 | [7] -0.267 | [8] -0.081 | [9] -0.1 | tipifarnib 0.063 | mubritinib -0.117

NSMAF (UniProt Q92636)
inactive: [1] -0.003 | crizotinib -0.027 | [2] -0.027 | [3] 0 | duvelisib 0.09 | gandotinib 0.081 | tozasertib -0.007 | [4] 0.067 | doramapimod 0.041 | ispinesib -0.033 | bafetinib -0.051 | [5] 0.005 | nilotinib -0.031 | [6] -0.065 | dasatinib 0.005 | [7] 0.009 | [8] 0.016 | [9] -0.038 | tipifarnib -0.015 | mubritinib 0.055

NIP7 (UniProt Q9Y221)
inactive: [1] 0.017 | crizotinib -0.134 | [2] -0.275 | [3] 0.367 | duvelisib -0.044 | gandotinib 0.096 | tozasertib 0 | [4] -0.018 | doramapimod 0.157 | ispinesib 0.136 | bafetinib 0.381 | [5] -0.286 | nilotinib -0.109 | [6] 0.001 | dasatinib 0.17 | [7] 0.136 | [8] -0.179 | [9] -0.145 | tipifarnib 0.088 | mubritinib -0.284

NFYA (UniProt P23511)
inactive: [1] 0.148 | crizotinib -0.111 | [2] 0.153 | [3] -0.004 | duvelisib -0.055 | gandotinib 0.086 | tozasertib 0.012 | [4] 0.109 | doramapimod 0.069 | ispinesib 0.06 | bafetinib 0.08 | [5] -0.025 | nilotinib -0.012 | [6] 0.033 | dasatinib 0.047 | [7] -0.064 | [8] -0.054 | [9] -0.081 | tipifarnib -0.012 | mubritinib -0.017

NPTN (UniProt Q9Y639)
inactive: [1] 0.052 | crizotinib 0.115 | [2] 0.227 | [3] -0.051 | duvelisib 0.109 | gandotinib -0.144 | tozasertib -0.056 | [4] -0.034 | doramapimod -0.018 | ispinesib 0.179 | bafetinib -0.007 | [5] -0.173 | nilotinib 0.089 | [6] 0.006 | dasatinib -0.039 | [7] 0.009 | [8] 0.075 | [9] 0.014 | tipifarnib 0.052 | mubritinib 0.024

NLRP2 (UniProt Q9NX02)
inactive: [1] 0.084 | crizotinib -0.08 | [2] -0.03 | [3] 0.183 | duvelisib -0.003 | gandotinib -0.04 | tozasertib 0.098 | [4] 0.105 | doramapimod 0.112 | ispinesib -0.059 | bafetinib 0.017 | [5] -0.038 | nilotinib -0.096 | [6] -0.06 | dasatinib -0.174 | [7] 0.009 | [8] -0.064 | [9] -0.03 | tipifarnib -0.157 | mubritinib -0.076

NME3 (UniProt Q13232)
inactive: [1] 0.021 | crizotinib 0.063 | [2] -0.01 | [3] 0.016 | duvelisib 0.012 | gandotinib -0.019 | tozasertib -0.02 | [4] -0.043 | doramapimod -0.025 | ispinesib 0.053 | bafetinib -0.036 | [5] -0.014 | nilotinib -0.006 | [6] 0.023 | dasatinib 0.056 | [7] -0.029 | [8] -0.005 | [9] 0.089 | tipifarnib 0.059 | mubritinib 0.017

NRBP1 (UniProt Q9UHY1)
inactive: [1] 0.032 | crizotinib 0.016 | [2] 0.022 | [3] -0.076 | duvelisib -0.017 | gandotinib -0.039 | tozasertib 0.067 | [4] -0.004 | doramapimod 0.008 | ispinesib 0.035 | bafetinib -0.043 | [5] 0.016 | nilotinib -0.002 | [6] -0.029 | dasatinib 0.07 | [7] 0.039 | [8] -0.057 | [9] 0.059 | tipifarnib 0.017 | mubritinib 0.056

NHLRC3 (UniProt Q5JS37)
inactive: [1] 0.002 | crizotinib 0.07 | [2] 0.02 | [3] -0.046 | duvelisib 0.083 | gandotinib -0.011 | tozasertib -0.106 | [4] -0.077 | doramapimod 0.035 | ispinesib 0.078 | bafetinib 0.031 | [5] 0.01 | nilotinib -0.049 | [6] -0.016 | dasatinib -0.03 | [7] -0.052 | [8] -0.143 | [9] -0.003 | tipifarnib 0.043 | mubritinib 0.127

NLE1 (UniProt Q9NVX2)
inactive: [1] 0.011 | crizotinib 0.02 | [2] 0.018 | [3] -0.077 | duvelisib 0.03 | gandotinib -0.006 | tozasertib 0.017 | [4] 0.004 | doramapimod -0.027 | ispinesib 0.088 | bafetinib -0.042 | [5] -0.007 | nilotinib 0.011 | [6] -0.06 | dasatinib -0.043 | [7] 0.043 | [8] 0.02 | [9] 0.017 | tipifarnib 0.016 | mubritinib 0.02

NOMO1 (UniProt Q15155)
inactive: [1] -0.059 | crizotinib -0.106 | [2] -0.126 | [3] 0.086 | duvelisib 0.075 | gandotinib -0.089 | tozasertib 0 | [4] -0.014 | doramapimod 0.039 | ispinesib -0.188 | bafetinib 0.051 | [5] 0.058 | nilotinib 0.028 | [6] 0.046 | dasatinib 0.072 | [7] -0.05 | [8] -0.086 | [9] 0.222 | tipifarnib 0.079

NFIA isoform 4 (UniProt Q12857)
inactive: [1] -0.054 | crizotinib -0.062 | [2] -0.012 | [3] 0.035 | duvelisib 0.054 | gandotinib 0.039 | tozasertib 0.008 | [4] -0.014 | doramapimod 0.043 | ispinesib 0.041 | bafetinib -0.017 | [5] -0.078 | nilotinib 0.022 | [6] 0.04 | dasatinib 0.084 | [7] -0.078 | [8] -0.086 | [9] 0.074 | tipifarnib 0.046 | mubritinib -0.023

NQO2 (UniProt P16083)
inactive: [1] 0 | crizotinib 0.088 | [2] 0.023 | [3] -0.141 | duvelisib 0.048 | gandotinib 0.055 | tozasertib -0.004 | [4] -0.034 | doramapimod 0 | ispinesib 0.015 | bafetinib -0.073 | [5] -0.024 | nilotinib 0.045 | [6] 0.002 | dasatinib -0.007 | [7] -0.014 | [8] 0.072 | [9] 0.042 | tipifarnib -0.031 | mubritinib 0.027
